From paper PMC5345657, “Targeting myeloid differentiation protein 2 by the new chalcone L2H21 protects LPS‐induced acute lung injury” (Journal of Cellular and Molecular Medicine, 2016)
Results are given in words; binding and its absence hold for the method and conditions named. Binding seen in cells or lysates may run through a third protein. Some results given as binding are weak or reduced against the parent protein; the word gives no strength.

Protein sequences, listed by entry. Tags and fused reporters are not part of them. Residues count along the entry.
UniProt Q9QUK6, residues 26-835: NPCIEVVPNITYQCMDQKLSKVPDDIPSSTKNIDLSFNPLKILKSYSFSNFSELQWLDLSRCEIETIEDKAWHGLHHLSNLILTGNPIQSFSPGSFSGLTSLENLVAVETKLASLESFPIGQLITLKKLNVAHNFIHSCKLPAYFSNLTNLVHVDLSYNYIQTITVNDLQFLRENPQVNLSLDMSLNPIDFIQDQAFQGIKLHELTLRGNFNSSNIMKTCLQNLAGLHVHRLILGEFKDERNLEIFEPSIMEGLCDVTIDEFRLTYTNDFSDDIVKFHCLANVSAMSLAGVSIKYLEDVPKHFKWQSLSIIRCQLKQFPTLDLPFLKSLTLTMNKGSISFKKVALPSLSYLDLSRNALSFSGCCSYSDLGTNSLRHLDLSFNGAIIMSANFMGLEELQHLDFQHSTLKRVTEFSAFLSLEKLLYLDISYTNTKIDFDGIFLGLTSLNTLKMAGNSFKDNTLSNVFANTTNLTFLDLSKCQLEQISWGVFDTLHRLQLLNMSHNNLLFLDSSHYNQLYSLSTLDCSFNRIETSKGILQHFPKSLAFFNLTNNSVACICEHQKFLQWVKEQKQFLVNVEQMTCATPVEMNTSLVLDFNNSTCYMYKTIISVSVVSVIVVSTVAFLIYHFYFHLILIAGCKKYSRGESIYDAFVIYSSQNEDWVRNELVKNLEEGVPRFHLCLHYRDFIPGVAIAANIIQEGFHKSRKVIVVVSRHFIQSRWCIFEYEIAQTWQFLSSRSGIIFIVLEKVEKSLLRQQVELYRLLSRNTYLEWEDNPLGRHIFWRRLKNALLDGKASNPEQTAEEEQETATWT

Key:
[1] = target: T1, myeloid differentiation protein 2 (mouse (endogenous in mouse peritoneal macrophages and mouse lung tissue)) (UniProt Q9JHF9); experiment: co-IP; mouse peritoneal macrophages pre-treated with L2H21 (10 uM) or DMSO for 30 min, then LPS (1 ug/ml) for 5 min; lysate (400 ug protein) immunoprecipitated with anti-MD-2 antibody at 4 C overnight, protein A+G agarose, blot with anti-TLR4 and anti-MD-2
T1 sequence: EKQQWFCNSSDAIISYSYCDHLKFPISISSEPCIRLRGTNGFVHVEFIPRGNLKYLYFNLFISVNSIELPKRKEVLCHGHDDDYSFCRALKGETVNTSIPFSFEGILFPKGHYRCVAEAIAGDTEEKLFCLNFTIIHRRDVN

[2] = target: T1, myeloid differentiation protein 2 (mouse (endogenous in mouse peritoneal macrophages and mouse lung tissue)); experiment: co-IP; lung tissue lysates of ALI mice (intratracheal LPS 5 mg/kg, with or without L2H21 20 mg/kg by gavage for 7 days); immunoprecipitated with anti-MD-2 antibody, protein A+G agarose, blot with anti-TLR4 and anti-MD-2

- binding [1]: binds
- binding [2]: binds
Substance: toll-like receptor 4 (from UniProt Q9QUK6 26-835)
